This is one part of the list.
Columns and labels:
Assay in all cases: log2 fold change, soluble protein after heating vs DMSO (PISA); higher = thermal stabilisation; K562 lysate, 10 uM; active = over 0.2 and 3.5 SD of the protein, either way, in both replicates (recomputed)
nilotinib = compound: Cc1cn(-c2cc(NC(=O)c3ccc(C)c(Nc4nccc(-c5cccnc5)n4)c3)cc(C(F)(F)F)c2)cn1 [nilotinib]
How it was run: (§1)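 K562 pellets were dounce-homogenised in PBS pH 7.4 containing 1 mM MgCl2, and the crude extract, at 1 mg/mL protein, was exposed to 10 μM compound for 30 min. Aliquots were heated for 3 min across 48°C-58°C, pooled, brought to 0.5% NP-40 at 4°C and spun at 21,000xg for 90 min, with the supernatant taken as soluble protein. TMTpro 16plex LC-MS/MS with equalised channel sums quantified that protein. Values are log-two fold changes in thermal stability relative to solvent controls, taken from duplicates.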

The chains behind the UniProt entries cited, without tags or fusion partners. Where a name states a change or a piece, a line headed by the entry shows the natural chain unless it says otherwise.
UniProt P15954, whole entry, looked up: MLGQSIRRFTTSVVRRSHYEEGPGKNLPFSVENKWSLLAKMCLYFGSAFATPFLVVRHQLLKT
UniProt Q96FN4: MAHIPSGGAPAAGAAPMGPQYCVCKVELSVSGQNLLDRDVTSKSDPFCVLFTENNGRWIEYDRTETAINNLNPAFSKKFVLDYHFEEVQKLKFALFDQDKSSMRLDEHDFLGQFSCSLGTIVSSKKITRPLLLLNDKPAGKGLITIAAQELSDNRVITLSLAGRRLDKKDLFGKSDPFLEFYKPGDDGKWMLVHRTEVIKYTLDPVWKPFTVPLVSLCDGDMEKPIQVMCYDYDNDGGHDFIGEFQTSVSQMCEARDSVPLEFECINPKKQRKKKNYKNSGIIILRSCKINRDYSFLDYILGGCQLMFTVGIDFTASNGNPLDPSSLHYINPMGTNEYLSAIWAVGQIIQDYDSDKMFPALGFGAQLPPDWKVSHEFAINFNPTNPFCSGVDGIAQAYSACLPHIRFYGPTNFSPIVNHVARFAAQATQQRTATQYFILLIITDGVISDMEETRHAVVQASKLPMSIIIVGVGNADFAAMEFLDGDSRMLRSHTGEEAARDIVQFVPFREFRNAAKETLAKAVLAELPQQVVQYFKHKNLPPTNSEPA
UniProt O75208: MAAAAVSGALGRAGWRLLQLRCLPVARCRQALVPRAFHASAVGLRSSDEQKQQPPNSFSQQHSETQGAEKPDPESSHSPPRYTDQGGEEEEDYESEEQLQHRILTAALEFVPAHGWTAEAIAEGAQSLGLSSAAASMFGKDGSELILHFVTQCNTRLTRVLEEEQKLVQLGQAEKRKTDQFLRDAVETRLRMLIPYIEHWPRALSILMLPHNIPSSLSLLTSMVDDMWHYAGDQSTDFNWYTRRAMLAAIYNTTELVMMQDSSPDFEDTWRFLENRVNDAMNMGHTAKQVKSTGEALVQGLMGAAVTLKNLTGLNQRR
UniProt P20674, whole entry, looked up: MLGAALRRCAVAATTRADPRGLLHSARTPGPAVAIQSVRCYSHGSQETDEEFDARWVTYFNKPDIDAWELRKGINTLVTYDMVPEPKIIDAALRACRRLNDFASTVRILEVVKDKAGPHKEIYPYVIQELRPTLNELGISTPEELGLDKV
UniProt Q49B96: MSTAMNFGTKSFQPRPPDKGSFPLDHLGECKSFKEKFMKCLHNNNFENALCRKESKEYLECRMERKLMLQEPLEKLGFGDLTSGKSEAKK
UniProt Q9Y2Z9: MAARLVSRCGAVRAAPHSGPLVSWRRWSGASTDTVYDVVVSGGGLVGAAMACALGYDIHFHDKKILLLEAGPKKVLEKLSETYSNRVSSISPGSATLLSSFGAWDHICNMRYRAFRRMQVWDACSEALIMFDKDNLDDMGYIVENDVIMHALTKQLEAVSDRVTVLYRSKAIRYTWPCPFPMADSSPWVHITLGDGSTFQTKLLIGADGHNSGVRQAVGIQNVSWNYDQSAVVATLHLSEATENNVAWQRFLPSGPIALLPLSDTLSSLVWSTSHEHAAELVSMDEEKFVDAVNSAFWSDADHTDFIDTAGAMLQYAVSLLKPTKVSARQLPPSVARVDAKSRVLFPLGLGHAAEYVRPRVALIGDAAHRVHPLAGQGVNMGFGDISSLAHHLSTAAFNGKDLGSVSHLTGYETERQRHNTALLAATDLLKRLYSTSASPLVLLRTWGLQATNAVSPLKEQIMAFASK
UniProt Q10570: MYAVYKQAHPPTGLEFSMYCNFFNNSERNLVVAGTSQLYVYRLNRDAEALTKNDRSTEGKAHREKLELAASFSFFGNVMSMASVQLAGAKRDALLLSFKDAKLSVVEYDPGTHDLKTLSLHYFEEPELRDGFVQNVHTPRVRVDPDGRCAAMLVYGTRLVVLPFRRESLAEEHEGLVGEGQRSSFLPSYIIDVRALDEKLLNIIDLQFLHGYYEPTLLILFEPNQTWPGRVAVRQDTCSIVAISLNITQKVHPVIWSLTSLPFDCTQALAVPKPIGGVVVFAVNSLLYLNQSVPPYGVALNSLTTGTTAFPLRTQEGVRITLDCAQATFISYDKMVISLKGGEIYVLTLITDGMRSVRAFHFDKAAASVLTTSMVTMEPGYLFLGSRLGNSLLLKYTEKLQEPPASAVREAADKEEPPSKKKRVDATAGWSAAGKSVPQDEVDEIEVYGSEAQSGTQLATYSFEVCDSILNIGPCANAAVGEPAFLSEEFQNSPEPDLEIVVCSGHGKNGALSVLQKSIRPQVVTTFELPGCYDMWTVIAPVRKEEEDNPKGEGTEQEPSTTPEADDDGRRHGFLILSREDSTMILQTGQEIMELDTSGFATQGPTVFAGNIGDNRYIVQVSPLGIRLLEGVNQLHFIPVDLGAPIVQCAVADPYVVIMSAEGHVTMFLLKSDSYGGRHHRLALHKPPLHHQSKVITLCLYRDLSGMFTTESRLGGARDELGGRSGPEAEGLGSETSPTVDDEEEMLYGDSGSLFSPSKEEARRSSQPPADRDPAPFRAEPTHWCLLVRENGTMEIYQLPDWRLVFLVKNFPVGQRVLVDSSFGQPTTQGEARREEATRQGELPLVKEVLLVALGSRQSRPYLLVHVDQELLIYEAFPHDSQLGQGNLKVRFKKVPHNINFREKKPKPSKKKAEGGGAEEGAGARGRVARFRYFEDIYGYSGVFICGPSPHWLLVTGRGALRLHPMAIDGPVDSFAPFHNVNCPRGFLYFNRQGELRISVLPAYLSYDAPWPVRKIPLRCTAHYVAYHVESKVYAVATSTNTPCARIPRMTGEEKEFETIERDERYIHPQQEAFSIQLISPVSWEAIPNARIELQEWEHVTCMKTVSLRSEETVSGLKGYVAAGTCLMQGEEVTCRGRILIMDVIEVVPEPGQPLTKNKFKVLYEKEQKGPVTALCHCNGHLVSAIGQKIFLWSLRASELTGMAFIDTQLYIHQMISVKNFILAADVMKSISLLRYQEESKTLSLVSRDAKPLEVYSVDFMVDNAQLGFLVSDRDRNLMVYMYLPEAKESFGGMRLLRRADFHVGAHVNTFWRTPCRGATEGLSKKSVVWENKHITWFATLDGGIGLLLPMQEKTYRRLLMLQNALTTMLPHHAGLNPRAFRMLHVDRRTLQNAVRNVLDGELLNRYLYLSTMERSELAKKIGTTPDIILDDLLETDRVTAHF
UniProt Q99807: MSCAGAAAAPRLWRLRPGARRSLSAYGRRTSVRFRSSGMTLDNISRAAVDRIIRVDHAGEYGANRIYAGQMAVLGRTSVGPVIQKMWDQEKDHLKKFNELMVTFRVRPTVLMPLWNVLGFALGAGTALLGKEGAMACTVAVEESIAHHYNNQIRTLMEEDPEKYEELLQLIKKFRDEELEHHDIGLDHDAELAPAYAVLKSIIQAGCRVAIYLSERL
UniProt Q8WTW3: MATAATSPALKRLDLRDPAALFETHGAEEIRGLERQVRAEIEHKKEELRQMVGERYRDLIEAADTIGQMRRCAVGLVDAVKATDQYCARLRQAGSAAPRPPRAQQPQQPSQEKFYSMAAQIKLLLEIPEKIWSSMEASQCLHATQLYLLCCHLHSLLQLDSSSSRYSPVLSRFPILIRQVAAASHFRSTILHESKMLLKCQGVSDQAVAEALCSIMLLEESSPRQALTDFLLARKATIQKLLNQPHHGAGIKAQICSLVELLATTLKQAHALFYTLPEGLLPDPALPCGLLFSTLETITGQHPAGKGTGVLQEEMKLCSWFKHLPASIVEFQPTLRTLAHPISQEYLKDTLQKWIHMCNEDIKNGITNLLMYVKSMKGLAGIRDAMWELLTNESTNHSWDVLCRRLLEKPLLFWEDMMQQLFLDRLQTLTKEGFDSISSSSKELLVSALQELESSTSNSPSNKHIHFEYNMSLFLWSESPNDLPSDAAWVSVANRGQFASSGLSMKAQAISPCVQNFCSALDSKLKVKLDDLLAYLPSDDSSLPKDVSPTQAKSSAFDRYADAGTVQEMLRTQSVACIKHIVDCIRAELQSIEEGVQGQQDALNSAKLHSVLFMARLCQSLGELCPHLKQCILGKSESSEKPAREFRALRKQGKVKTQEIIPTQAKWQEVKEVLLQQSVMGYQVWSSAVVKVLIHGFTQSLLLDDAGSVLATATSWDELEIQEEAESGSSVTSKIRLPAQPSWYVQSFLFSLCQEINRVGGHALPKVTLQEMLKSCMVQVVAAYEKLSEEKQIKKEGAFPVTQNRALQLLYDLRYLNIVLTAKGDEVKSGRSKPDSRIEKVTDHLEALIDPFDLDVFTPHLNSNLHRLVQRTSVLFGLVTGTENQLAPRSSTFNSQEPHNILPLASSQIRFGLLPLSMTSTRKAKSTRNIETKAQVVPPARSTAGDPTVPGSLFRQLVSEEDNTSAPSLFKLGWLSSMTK
UniProt Q8WXC6: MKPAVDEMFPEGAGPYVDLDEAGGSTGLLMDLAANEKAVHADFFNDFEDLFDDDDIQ
UniProt Q9BU20: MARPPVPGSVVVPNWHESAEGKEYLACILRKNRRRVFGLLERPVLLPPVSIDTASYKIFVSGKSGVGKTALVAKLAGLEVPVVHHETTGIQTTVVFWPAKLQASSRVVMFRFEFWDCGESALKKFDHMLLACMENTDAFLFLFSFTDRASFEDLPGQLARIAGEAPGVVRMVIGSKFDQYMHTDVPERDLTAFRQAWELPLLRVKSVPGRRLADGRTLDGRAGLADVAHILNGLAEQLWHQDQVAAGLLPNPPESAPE
UniProt P57737: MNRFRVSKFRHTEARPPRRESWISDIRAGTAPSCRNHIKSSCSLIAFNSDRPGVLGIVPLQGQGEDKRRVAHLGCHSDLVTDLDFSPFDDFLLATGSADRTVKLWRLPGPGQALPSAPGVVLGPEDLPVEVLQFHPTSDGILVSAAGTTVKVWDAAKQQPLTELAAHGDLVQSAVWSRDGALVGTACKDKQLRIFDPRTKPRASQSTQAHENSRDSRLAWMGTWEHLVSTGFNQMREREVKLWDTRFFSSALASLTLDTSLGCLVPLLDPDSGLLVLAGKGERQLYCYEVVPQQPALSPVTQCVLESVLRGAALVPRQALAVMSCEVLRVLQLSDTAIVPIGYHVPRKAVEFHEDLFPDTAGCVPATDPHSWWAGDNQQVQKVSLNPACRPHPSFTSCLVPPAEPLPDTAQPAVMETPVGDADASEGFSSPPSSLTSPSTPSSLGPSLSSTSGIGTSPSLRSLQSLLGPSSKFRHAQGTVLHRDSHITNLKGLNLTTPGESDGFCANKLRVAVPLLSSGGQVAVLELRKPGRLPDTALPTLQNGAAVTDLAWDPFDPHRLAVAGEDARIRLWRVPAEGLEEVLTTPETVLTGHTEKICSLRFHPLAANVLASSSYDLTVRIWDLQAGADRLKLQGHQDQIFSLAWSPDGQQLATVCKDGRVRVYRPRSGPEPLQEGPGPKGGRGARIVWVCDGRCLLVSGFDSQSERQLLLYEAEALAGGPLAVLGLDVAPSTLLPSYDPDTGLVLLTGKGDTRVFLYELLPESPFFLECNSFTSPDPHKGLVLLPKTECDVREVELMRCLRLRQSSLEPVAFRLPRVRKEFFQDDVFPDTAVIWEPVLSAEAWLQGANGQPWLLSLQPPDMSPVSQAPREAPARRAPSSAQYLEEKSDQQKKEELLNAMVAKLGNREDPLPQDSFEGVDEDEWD
UniProt Q9NRU3: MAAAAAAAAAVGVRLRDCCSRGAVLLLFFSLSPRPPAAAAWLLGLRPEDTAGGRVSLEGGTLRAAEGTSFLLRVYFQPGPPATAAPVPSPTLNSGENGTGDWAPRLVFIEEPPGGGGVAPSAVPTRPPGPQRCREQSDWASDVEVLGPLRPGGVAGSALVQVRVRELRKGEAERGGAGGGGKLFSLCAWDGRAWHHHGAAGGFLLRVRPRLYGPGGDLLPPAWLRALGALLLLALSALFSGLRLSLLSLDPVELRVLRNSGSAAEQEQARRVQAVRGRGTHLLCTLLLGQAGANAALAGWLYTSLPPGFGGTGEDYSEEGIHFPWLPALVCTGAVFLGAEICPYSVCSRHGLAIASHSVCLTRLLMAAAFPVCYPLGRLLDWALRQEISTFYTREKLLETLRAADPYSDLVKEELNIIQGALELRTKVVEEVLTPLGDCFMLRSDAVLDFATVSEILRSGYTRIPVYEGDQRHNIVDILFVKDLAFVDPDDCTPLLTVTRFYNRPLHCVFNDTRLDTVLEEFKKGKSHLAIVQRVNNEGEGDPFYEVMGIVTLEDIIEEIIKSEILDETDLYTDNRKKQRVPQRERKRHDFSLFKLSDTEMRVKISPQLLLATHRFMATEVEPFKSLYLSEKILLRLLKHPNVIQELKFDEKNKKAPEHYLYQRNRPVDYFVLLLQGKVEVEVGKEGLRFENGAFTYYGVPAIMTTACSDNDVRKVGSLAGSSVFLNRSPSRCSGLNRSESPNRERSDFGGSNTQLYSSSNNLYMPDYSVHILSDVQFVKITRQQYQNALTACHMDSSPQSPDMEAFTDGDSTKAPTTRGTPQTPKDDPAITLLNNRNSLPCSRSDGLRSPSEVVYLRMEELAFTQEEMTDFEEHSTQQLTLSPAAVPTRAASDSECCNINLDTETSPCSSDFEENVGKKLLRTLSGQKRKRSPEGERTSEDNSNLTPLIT

[1] = compound: Cc1nc(Nc2n[nH]c3c2CN(C(=O)N[C@H](CN(C)C)c2ccccc2)C3(C)C)c2sccc2n1
How it was run: as §1

dasatinib = compound: Cc1nc(Nc2ncc(C(=O)Nc3c(C)cccc3Cl)s2)cc(N2CCN(CCO)CC2)n1 [dasatinib]
How it was run: as §1

[2] = compound: Cc1ncc(-c2ccnc(Nc3ccc(S(C)(=O)=O)cc3)n2)n1C(C)C
How it was run: as §1

[3] = compound: Cn1cc(-c2ccc3c(c2)CCN3C(=O)Cc2cccc(C(F)(F)F)c2)c2c(N)ncnc21
How it was run: as §1

quisinostat = compound: Cn1cc(CNCC2CCN(c3ncc(C(=O)NO)cn3)CC2)c2ccccc21 [quisinostat]
How it was run: as §1

tipifarnib = compound: Cn1cncc1[C@@](N)(c1ccc(Cl)cc1)c1ccc2c(c1)c(-c1cccc(Cl)c1)cc(=O)n2C [tipifarnib]
How it was run: as §1

[4] = compound: NC(=O)Nc1cc(-c2cccc(F)c2)sc1C(=O)N[C@H]1CCCNC1
How it was run: as §1

[5] = compound: NC(=O)c1cnc(N[C@@H]2CCCC[C@@H]2N)nc1Nc1cccc(-n2nccn2)c1
How it was run: as §1

[6] = compound: NC1(c2ccc(-c3nc4ccn5c(=O)[nH]nc5c4cc3-c3ccccc3)cc2)CCC1
How it was run: as §1

Measured: log2 fold change

COX7C (UniProt P15954)
inactive: nilotinib 0.039 | [1] 0.054 | dasatinib 0.058 | [2] 0.366 | [3] 0.019 | quisinostat 0.008 | tipifarnib -0.006 | [4] -0.021 | [5] 0.047 | [6] 0.036

CPNE2 (UniProt Q96FN4)
inactive: nilotinib -0.125 | [1] 0.07 | dasatinib 0.237 | [2] -0.017 | [3] -0.058 | quisinostat -0.004 | tipifarnib 0.054 | [4] 0.035 | [5] 0.008 | [6] -0.017

COQ9 (UniProt O75208)
inactive: nilotinib 0.021 | [1] 0.03 | dasatinib -0.021 | [2] 0 | [3] -0.007 | quisinostat 0.036 | tipifarnib -0.016 | [4] 0 | [5] 0.002 | [6] -0.018

CNOT1 (UniProt A5YKK6)
inactive: nilotinib 0.004 | [1] 0.009 | dasatinib -0.036 | [2] 0.006 | [3] 0.005 | quisinostat -0.012 | tipifarnib -0.008 | [4] 0.01 | [5] 0.02 | [6] 0.011

COG5 isoform 2 (UniProt Q9UP83)
inactive: nilotinib -0.023 | [1] 0.057 | dasatinib -0.153 | [2] -0.003 | [3] 0.037 | quisinostat -0.031 | tipifarnib -0.019 | [4] 0.043 | [5] -0.081 | [6] -0.12

COX5A (UniProt P20674)
inactive: nilotinib 0.164 | [1] 0.02 | dasatinib 0 | [2] 0.084 | [3] 0.024 | quisinostat 0.06 | tipifarnib 0.04 | [4] -0.062 | [5] -0.053 | [6] -0.004

COX19 (UniProt Q49B96)
inactive: nilotinib -0.002 | [1] -0.038 | dasatinib 0.021 | [2] 0.018 | [3] -0.044 | quisinostat 0.026 | tipifarnib 0.042 | [4] -0.003 | [5] 0.022 | [6] -0.029

COCH (UniProt O43405)
inactive: nilotinib -0.155 | [1] -0.084 | dasatinib 0.013 | [2] 0.097 | [3] -0.014 | quisinostat 0.039 | tipifarnib 0.011 | [4] 0.003 | [5] 0.007 | [6] -0.078

COG8 (UniProt Q96MW5)
inactive: nilotinib 0.014 | [1] 0.046 | dasatinib -0.091 | [2] -0.05 | [3] 0.106 | quisinostat 0 | tipifarnib -0.008 | [4] 0.037 | [5] -0.129 | [6] -0.01

COMMD3-BMI1 (UniProt R4GMX3)
inactive: nilotinib 0.034 | [1] 0.028 | dasatinib -0.047 | [2] 0.07 | [3] 0.095 | quisinostat -0.001 | tipifarnib -0.04 | [4] -0.009 | [5] 0.043 | [6] 0.151

COL18A1 (UniProt P39060)
inactive: nilotinib 0.008 | [1] 0.001 | dasatinib 0.024 | [2] -0.084 | [3] -0.043 | quisinostat 0.031 | tipifarnib -0.031 | [4] -0.043 | [5] 0.024 | [6] 0.019

CNOT2 (UniProt Q9NZN8)
inactive: nilotinib 0.013 | [1] -0.011 | dasatinib -0.024 | [2] 0.009 | [3] -0.018 | quisinostat -0.026 | tipifarnib -0.074 | [4] 0.024 | [5] 0.02 | [6] -0.001

COQ6 (UniProt Q9Y2Z9)
inactive: nilotinib 0.026 | [1] -0.043 | dasatinib -0.044 | [2] -0.034 | [3] -0.114 | quisinostat -0.023 | tipifarnib -0.033 | [4] 0.032 | [5] 0.017 | [6] -0.011

CPSF1 (UniProt Q10570)
inactive: nilotinib 0.019 | [1] 0.024 | dasatinib -0.012 | [2] 0.032 | [3] 0.002 | quisinostat 0.004 | tipifarnib -0.045 | [4] 0.009 | [5] 0.01 | [6] 0.012

COQ7 (UniProt Q99807)
inactive: nilotinib -0.052 | [1] 0.013 | dasatinib -0.011 | [2] 0.036 | [3] 0.039 | quisinostat -0.058 | tipifarnib -0.007 | [4] 0.021 | [5] 0.048 | [6] -0.034

CPNE8 (UniProt Q86YQ8)
inactive: nilotinib -0.137 | [1] 0.01 | dasatinib 0.111 | [2] -0.007 | [3] 0.12 | quisinostat -0.083 | tipifarnib 0.011 | [4] 0.078 | [5] 0.061 | [6] 0.102

COA7 (UniProt Q96BR5)
inactive: nilotinib -0.042 | [1] 0.005 | dasatinib 0.001 | [2] 0.003 | [3] 0.035 | quisinostat 0.095 | tipifarnib -0.001 | [4] -0.025 | [5] -0.008 | [6] 0.041

CNOT6 (UniProt Q9ULM6)
inactive: nilotinib 0.045 | [1] -0.004 | dasatinib -0.012 | [2] -0.024 | [3] 0.01 | quisinostat 0.014 | tipifarnib 0.094 | [4] 0.036 | [5] 0.006 | [6] -0.006

COG6 (UniProt Q9Y2V7)
inactive: nilotinib 0.004 | [1] 0.038 | dasatinib -0.085 | [2] -0.041 | [3] -0.005 | quisinostat -0.068 | tipifarnib -0.045 | [4] -0.016 | [5] -0.008 | [6] -0.06

COG1 (UniProt Q8WTW3)
inactive: nilotinib -0.032 | [1] 0.011 | dasatinib -0.106 | [2] -0.006 | [3] 0.025 | quisinostat -0.036 | tipifarnib 0.002 | [4] 0.052 | [5] 0.01 | [6] 0.071

CNOT2 (UniProt F8VRS8)
inactive: [6] -0.122

CRACR2B (UniProt Q8N4Y2)
inactive: dasatinib -0.059 | [3] 0.042 | [6] 0.015

CNRIP1 (UniProt Q96F85)
inactive: dasatinib -0.026 | [3] -0.058 | quisinostat -0.292 | [4] 0.064 | [5] 0.083 | [6] -0.046

CPA4 (UniProt Q9UI42)
inactive: quisinostat 0.025 | [4] -0.067 | [5] -0.159 | [6] 0.014

COPB2 (UniProt P35606)
inactive: nilotinib 0 | [1] -0.004 | dasatinib -0.008 | [2] 0.009 | [3] -0.008 | quisinostat -0.018 | tipifarnib -0.004 | [4] 0.001 | [5] -0.008 | [6] -0.033

COPS9 (UniProt Q8WXC6)
inactive: [5] -0.074 | [6] 0.214

CNTROB isoform 2 (UniProt Q8N137)
inactive: dasatinib 0.379 | [3] 0.311 | [6] -0.291

Random excerpt: 2 entries already listed.
CPA4 (UniProt Q9UI42)
inactive: quisinostat 0.025 | [4] -0.067 | [5] -0.159 | [6] 0.014

COG8 (UniProt Q96MW5)
inactive: nilotinib 0.014 | [1] 0.046 | dasatinib -0.091 | [2] -0.05 | [3] 0.106 | quisinostat 0 | tipifarnib -0.008 | [4] 0.037 | [5] -0.129 | [6] -0.01

(listing goes on)

CNK3/IPCEF1 isoform 2 (UniProt G9CGD6)
inactive: dasatinib -0.131 | [3] 0.002 | [6] 0.168

CPLANE2 (UniProt Q9BU20)
inactive: quisinostat -0.012 | [4] 0.094 | [6] 0.115

CORO7 (UniProt P57737)
inactive: nilotinib -0.102 | [1] 0.136 | dasatinib 0.024 | [2] -0.072 | [3] 0.119 | quisinostat 0.171 | tipifarnib -0.051 | [4] 0.088 | [6] 0.183

CPEB3 (UniProt Q8NE35)
inactive: quisinostat 0.002 | [4] -0.039 | [6] -0.106

CNTRL (UniProt Q7Z7A1)
inactive: nilotinib 0.009 | [1] 0.025 | dasatinib 0.035 | [2] -0.002 | [3] -0.007 | quisinostat -0.11 | tipifarnib -0.052 | [4] 0.002 | [6] -0.035

CNNM1 (UniProt Q9NRU3)
inactive: nilotinib 0.016 | [1] 0.03 | dasatinib -0.022 | [2] 0.006 | [3] 0.005 | tipifarnib -0.031 | [6] -0.019

From the supplement of paper PMC10849652
